Measured values taken from patent US11123439B2 (Bayer Pharma Aktiengesellschaft, priority 2015, dated 2021).

Test: general procedure: solution-phase peptide synthesis; HATU / N,N-diisopropylethylamine
Details: trifluoroacetic acid (1:1) salt; for step yield: late stage modification step; for conjugation yield: conjugation step

Substance	step yield	conjugation yield
N-[(Benzyloxy)carbonyl]-L-alanyl-L-alpha-asparagyl-N^1-{(2S)-4-[{(1R)-1-[1-benzyl-4-(2,5-difluorophenyl)-1H-pyrrol-2-yl]-2,2-dimethylpropyl}(glycoloyl)amino]-1-[(2-{[(2,5-dioxo-2,5-dihydro-1H-pyrrol-1-yl)acetyl]amino}ethyl)amino]-1-oxobutan-2-yl}-L-aspartamide/trifluoroacetic Acid (1:1)	46% of theory	
N-isonicotinoyl-L-alanyl-L-alanyl-N1-{(2S)-4-[{(1R)-1-[1-benzyl-4-(2,5-difluorophenyl)-1H-pyrrol-2-yl]-2,2-dimethylpropyl}(glycoloyl)amino]-1-[(2-{[(2,5-dioxo-2,5-dihydro-1H-pyrrol-1-yl)acetyl]amino}ethyl)amino]-1-oxobutan-2-yl}-L-aspartamide Trifluoroacetate (1:1)		46% of theory
N-Methyl-N-(pyridin-4-ylacetyl)-L-alanyl-L-alanyl-N1-{(2S)-4-[{(1R)-1-[1-benzyl-4-(2,5-difluorophenyl)-1H-pyrrol-2-yl]-2,2-dimethylpropyl}(glycoloyl)amino]-1-[(2-{[(2,5-dioxo-2,5-dihydro-1H-pyrrol-1-yl)acetyl]amino}ethyl)amino]-1-oxobutan-2-yl}-L-aspartamide		19% of theory
Trifluoroacetic Acid/N-[(benzyloxy)carbonyl]-L-alanyl-L-alanyl-N^1-[(11S,15R)-15-[1-benzyl-4-(2,5-difluorophenyl)-1H-pyrrol-2-yl]-1-(2,5-dioxo-2,5-dihydro-1H-pyrrol-1-yl)-14-glycoloyl-16,16-dimethyl-6,6-dioxido-2,10-dioxo-6lambda^6-thia-3,9,14-triazaheptadecan-11-yl]-L-aspartamide (1:1)		13% of theory
N-(pyridin-4-ylacetyl)-L-alanyl-L-alanyl-N1-{(2S)-4-[{(1R)-1-[1-benzyl-4-(2,5-difluorophenyl)-1H-pyrrol-2-yl]-2,2-dimethylpropyl}(glycoloyl)amino]-1-[(2-{[(2,5-dioxo-2,5-dihydro-1H-pyrrol-1-yl)acetyl]amino}ethyl)amino]-1-oxobutan-2-yl}-L-aspartamide Trifluoroacetate (1:1)		34% of theory
N-{[2-(2-methoxyethoxy)ethoxy]acetyl}-L-alanyl-L-alanyl-N^1-{(2S)-4-[{(1R)-1-[1-benzyl-4-(2,5-difluorophenyl)-1H-pyrrol-2-yl]-2,2-dimethylpropyl}(glycoloyl)amino]-1-[(2-{[(2,5-dioxo-2,5-dihydro-1H-pyrrol-1-yl)acetyl]amino}ethyl)amino]-1-oxobutan-2-yl}-L-aspartamide		47% of theory
N-[(2,5-Dioxo-2,5-dihydro-1H-pyrrol-1-yl)acetyl]-L-alanyl-L-alanyl-N-{(1S)-3-[{(1R)-1-[1-benzyl-4-(2,5-difluorophenyl)-1H-pyrrol-2-yl]-2,2-dimethylpropyl}(glycoloyl)amino]-1-carboxypropyl}-L-aspartamide	29% of theory	
N-{5-[(2,5-Dioxopyrrolidin-1-yl)oxy]-5-oxopentanoyl}-L-alanyl-L-alanyl-N-{(1S)-3-[{(1R)-1-[1-benzyl-4-(2,5-difluorophenyl)-1H-pyrrol-2-yl]-2,2-dimethylpropyl}(glycoloyl)amino]-1-carboxypropyl}-L-aspartamide	27% of theory	
N-(Pyridin-4-ylacetyl)-L-alanyl-N-methyl-L-alanyl-N^1-{(2S)-4-[{(1R)-1-[1-benzyl-4-(2,5-difluorophenyl)-1H-pyrrol-2-yl]-2,2-dimethylpropyl}(glycoloyl)amino]-1-[(2-{[(2,5-dioxo-2,5-dihydro-1H-pyrrol-1-yl)acetyl]amino}ethyl)amino]-1-oxobutan-2-yl}-L-aspartamide		17% of theory
N-Acetyl-L-alanyl-L-alanyl-N^1-[(2S)-4-[{(1R)-1-[1-benzyl-4-(2,5-difluorophenyl)-1H-pyrrol-2-yl]-2,2-dimethylpropyl}(glycoloyl)amino]-1-({3-[(bromoacetyl)amino]propyl}amino)-1-oxobutan-2-yl]-L-aspartamide		24% of theory
L-alanyl-L-alanyl-N1-{(1S)-3-[{(1R)-1-[1-benzyl-4-(2,5-difluorophenyl)-1H-pyrrol-2-yl]-2,2-dimethylpropyl}(glycoloyl)amino]-1-carboxypropyl}-L-aspartamide	87% of theory	
